Data on two molecules can be found in article doi:10.1101/597153.

Sequences of proteins named here, by UniProt entry; tags and fusion partners are left off.
UniProt Q96EB6: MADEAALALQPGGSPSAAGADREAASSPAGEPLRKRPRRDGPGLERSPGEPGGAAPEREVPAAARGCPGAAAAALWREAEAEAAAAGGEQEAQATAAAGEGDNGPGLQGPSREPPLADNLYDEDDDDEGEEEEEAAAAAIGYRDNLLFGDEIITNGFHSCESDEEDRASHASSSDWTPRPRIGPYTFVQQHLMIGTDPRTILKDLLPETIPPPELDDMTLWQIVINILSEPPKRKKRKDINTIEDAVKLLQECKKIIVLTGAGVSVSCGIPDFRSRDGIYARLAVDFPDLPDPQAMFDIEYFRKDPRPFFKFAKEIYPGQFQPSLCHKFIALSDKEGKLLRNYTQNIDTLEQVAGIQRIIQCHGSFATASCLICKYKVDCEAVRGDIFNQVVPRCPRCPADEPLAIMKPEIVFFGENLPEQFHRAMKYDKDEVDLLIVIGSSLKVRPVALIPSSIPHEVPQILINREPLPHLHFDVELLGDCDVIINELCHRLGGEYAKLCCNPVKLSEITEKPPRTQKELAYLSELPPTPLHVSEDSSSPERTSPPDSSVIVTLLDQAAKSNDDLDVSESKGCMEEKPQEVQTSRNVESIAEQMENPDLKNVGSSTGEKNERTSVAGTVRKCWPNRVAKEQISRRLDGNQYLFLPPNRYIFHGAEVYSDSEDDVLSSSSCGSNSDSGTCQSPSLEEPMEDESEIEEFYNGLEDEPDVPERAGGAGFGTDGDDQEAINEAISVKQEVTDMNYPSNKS

Residue numbers refer to the chain shown, from its start. These are yes or no findings as the source states them, for the method shown. Binding seen in cells or lysates may run through a third protein. Some binding calls cover weakened binding; strength is not graded here. For some of these results: Sequences can lack the tags named with a protein.

What all share (test): co-IP
For experiment [1], the target named is T1, FLAG-SIRT1-mutE2 (mouse) (UniProt Q923E4).
T1 sequence: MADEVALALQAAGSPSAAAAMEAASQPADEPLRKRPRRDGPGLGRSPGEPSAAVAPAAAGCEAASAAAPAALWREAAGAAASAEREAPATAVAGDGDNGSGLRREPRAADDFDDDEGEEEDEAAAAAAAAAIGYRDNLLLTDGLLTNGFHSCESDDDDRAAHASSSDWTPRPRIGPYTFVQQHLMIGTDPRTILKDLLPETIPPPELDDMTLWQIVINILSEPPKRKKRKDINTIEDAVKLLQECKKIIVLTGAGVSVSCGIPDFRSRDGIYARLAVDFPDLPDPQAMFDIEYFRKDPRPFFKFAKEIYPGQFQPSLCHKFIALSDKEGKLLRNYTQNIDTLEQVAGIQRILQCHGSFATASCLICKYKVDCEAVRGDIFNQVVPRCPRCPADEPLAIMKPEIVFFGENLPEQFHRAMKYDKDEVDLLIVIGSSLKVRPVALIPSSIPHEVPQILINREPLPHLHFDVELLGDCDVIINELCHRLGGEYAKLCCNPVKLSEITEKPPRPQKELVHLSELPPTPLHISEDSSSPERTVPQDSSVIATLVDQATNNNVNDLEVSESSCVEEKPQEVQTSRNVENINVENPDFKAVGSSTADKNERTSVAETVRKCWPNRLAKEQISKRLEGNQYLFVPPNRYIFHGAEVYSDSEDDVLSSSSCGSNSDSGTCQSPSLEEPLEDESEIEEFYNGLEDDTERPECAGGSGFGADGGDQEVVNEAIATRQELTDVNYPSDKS

Experiment [2] concerns the target endogenous SIRT1 (human (endogenous in HEK293T)) (UniProt Q96EB6).
For experiment [3], the target named is T2, FLAG-SIRT1-WT (mouse) (UniProt Q923E4).
T2 sequence: T1 sequence with A160T, A161S

B1: PPARα (protein, UniProt Q07869 1-468)
chain: MVDTESPLCPLSPLEAGDLESPLSEEFLQEMGNIQEISQSIGEDSSGSFGFTEYQYLGSCPGSDGSVITDTLSPASSPSSVTYPVVPGSVDESPSGALNIECRICGDKASGYHYGVHACEGCKGFFRRTIRLKLVYDKCDRSCKIQKKNRNKCQYCRFHKCLSVGMSHNAIRFGRMPRSEKAKLKAEILTCEHDIEDSETADLKSLAKRIYEAYLKNFNMNKVKARVILSGKASNNPPFVIHDMETLCMAEKTLVAKLVANGIQNKEAEVRIFHCCQCTSVETVTELTEFAKAIPGFANLDLNDQVTLLKYGVYEAIFAMLSSVMNKDGMLVAYGNGFITREFLKSLRKPFCDIMEPKFDFAMKFNALELDDSDISLFVAAIICCGDRPGLLNVGHIEKMQEGIVHVLRLHLQSNHPDDIFLFPKLLQKMADLRQLVTEHAQLVQIIKKTESDAALHPLLQEIYRDMY
For the molecule B1, the binding result in experiment [1], in experiment [2] and in experiment [3] was “binds” each time.

B2: HA-OGT (enzyme, UniProt O15294 1-1046)
chain: MASSVGNVADSTEPTKRMLSFQGLAELAHREYQAGDFEAAERHCMQLWRQEPDNTGVLLLLSSIHFQCRRLDRSAHFSTLAIKQNPLLAEAYSNLGNVYKERGQLQEAIEHYRHALRLKPDFIDGYINLAAALVAAGDMEGAVQAYVSALQYNPDLYCVRSDLGNLLKALGRLEEAKACYLKAIETQPNFAVAWSNLGCVFNAQGEIWLAIHHFEKAVTLDPNFLDAYINLGNVLKEARIFDRAVAAYLRALSLSPNHAVVHGNLACVYYEQGLIDLAIDTYRRAIELQPHFPDAYCNLANALKEKGSVAEAEDCYNTALRLCPTHADSLNNLANIKREQGNIEEAVRLYRKALEVFPEFAAAHSNLASVLQQQGKLQEALMHYKEAIRISPTFADAYSNMGNTLKEMQDVQGALQCYTRAIQINPAFADAHSNLASIHKDSGNIPEAIASYRTALKLKPDFPDAYCNLAHCLQIVCDWTDYDERMKKLVSIVADQLEKNRLPSVHPHHSMLYPLSHGFRKAIAERHGNLCLDKINVLHKPPYEHPKDLKLSDGRLRVGYVSSDFGNHPTSHLMQSIPGMHNPDKFEVFCYALSPDDGTNFRVKVMAEANHFIDLSQIPCNGKAADRIHQDGIHILVNMNGYTKGARNELFALRPAPIQAMWLGYPGTSGALFMDYIITDQETSPAEVAEQYSEKLAYMPHTFFIGDHANMFPHLKKKAVIDFKSNGHIYDNRIVLNGIDLKAFLDSLPDVKIVKMKCPDGGDNADSSNTALNMPVIPMNTIAEAVIEMINRGQIQITINGFSISNGLATTQINNKAATGEEVPRTIIVTTRSQYGLPEDAIVYCNFNQLYKIDPSTLQMWANILKRVPNSVLWLLRFPAVGEPNIQQYAQNMGLPQNRIIFSPVAPKEEHVRRGQLADVCLDTPLCNGHTTGMDVLWAGTPMVTMPGETLASRVAASQLTCLGCLELIAKNRQEYEDIAVKLGTDLEYLKKVRGKVWKQRISSPLFNTKQYTMELERLYLQMWEHYAAGNKPDHMIKPVEVTESA
Take B2: the binding entry in experiment [3] is recorded as “binds”.
